The target of data set [1] is T1, MdNAC5T M173L (Malus x domestica (Fuji / Cripp's Pink)) (UniProt A0A498K6T8).
T1 sequence (looked up, limits assumed): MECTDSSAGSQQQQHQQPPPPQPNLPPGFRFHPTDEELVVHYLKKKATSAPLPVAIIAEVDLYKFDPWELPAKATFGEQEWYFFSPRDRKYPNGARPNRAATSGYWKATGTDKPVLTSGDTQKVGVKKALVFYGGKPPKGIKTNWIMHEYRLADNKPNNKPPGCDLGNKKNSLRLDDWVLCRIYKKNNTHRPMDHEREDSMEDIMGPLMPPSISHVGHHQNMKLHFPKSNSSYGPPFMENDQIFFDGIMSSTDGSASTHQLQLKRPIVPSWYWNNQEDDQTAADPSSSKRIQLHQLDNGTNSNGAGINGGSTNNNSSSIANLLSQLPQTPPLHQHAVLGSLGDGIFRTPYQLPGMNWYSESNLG
Kind of data set: EMSA. The settings on record: binds, weaker than MdNAC5A; EMSA/Gel-Shift Kit (Beyotime) per instructions; pH and temperature not stated; recombinant protein; protein details: His (pET-32a); label: 3' biotin (both strands). On the technique in general: Mobility shift assays separate free from complexed probe on a gel.

The target in data set [2] is T2, MdNAC5A (Malus x domestica (Fuji / Cripp's Pink)) (UniProt A0A498K6T8).
T2 sequence (looked up, limits assumed): T1 sequence (looked up, limits assumed) with L173M
The data set can be described thus: EMSA. The settings on record: EMSA/Gel-Shift Kit (Beyotime) per instructions; pH and temperature not stated; recombinant protein; protein details: His (pET-32a); label: 3' biotin (both strands).

Substitutions are numbered along the chain they refer to. For some assays here: A weaker result is weaker than the reference pair of the same experiment. Protein sequences can lack the tags named with them. The exact form of at least one protein or probe is not confirmed. At least one verdict was read from the data and is not stated in words by the source.

Turning to “AAATAATATCAAAGCCATGTGAACTGAGTTGGTCCA (double strand) [MdERF3p2 probe]”, the binding result in data set [1] is “binds more weakly”; in data set [2], “binds”.

As to “ACAAATTTTGTAAGTCATGTGATGTGTCACGAATCG (double strand) [MdERF3p1 probe]”, the binding result was “binds more weakly” in data set [1] and “binds” in data set [2].

Regarding “CCTGTGACAATATTACATGTGGCATGTCAATTGAGA (double strand) [MdACS1 probe]”, the binding result in data set [1] is recorded as “binds more weakly”.

The record behind these values is article PMC11758708, “Natural variation in MdNAC5 contributes to fruit firmness and ripening divergence in apple”.
